# This is one part of the list.
# By UniProt entry, the sequences of proteins in these tests, tags left out. Where a name states a change or a piece, a line headed by the entry shows the natural chain unless it says otherwise.
# UniProt O75688: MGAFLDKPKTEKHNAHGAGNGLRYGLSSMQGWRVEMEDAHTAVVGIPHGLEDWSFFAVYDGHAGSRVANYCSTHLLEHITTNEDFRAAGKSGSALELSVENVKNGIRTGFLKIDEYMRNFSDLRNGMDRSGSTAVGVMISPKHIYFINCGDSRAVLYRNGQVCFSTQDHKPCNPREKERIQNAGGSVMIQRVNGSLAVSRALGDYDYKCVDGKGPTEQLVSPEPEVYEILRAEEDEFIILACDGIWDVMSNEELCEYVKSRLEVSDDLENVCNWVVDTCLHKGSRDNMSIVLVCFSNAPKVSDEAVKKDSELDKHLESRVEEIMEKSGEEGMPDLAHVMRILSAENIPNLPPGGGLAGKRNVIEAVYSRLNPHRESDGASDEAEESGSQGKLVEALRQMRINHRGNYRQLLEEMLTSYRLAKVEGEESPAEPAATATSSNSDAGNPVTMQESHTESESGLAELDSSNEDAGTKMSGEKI
# UniProt Q5SWA1: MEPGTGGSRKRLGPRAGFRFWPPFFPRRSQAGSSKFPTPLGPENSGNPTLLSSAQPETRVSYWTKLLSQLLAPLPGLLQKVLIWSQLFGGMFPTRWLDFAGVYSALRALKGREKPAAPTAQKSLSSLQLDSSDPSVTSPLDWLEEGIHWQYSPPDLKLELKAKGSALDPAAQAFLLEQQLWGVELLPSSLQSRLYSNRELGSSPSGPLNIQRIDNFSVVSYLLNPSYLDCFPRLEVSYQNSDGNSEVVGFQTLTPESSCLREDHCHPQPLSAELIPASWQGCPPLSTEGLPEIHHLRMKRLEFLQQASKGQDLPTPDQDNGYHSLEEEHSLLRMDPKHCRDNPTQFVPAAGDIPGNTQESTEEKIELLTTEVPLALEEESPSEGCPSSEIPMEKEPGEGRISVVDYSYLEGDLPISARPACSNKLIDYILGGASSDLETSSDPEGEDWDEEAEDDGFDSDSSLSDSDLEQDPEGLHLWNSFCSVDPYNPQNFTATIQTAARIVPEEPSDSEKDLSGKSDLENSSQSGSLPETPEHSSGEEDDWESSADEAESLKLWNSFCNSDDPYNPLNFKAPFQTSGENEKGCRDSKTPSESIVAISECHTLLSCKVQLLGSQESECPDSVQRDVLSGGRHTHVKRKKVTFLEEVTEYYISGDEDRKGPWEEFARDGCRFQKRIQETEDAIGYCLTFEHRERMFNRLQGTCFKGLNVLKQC
# UniProt Q9BSG0: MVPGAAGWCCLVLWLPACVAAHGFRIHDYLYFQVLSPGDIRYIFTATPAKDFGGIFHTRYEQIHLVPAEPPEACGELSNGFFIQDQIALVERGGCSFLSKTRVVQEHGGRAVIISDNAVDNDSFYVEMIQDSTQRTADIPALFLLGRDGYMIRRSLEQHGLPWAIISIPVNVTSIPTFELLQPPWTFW
# UniProt O95685: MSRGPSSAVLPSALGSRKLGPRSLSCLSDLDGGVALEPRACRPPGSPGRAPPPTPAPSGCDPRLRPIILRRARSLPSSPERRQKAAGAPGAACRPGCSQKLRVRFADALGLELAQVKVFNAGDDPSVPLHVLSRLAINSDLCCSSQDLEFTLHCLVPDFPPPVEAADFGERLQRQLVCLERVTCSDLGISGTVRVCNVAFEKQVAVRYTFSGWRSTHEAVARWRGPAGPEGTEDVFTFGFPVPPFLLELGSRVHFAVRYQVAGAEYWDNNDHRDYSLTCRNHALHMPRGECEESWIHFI
# UniProt Q9Y570: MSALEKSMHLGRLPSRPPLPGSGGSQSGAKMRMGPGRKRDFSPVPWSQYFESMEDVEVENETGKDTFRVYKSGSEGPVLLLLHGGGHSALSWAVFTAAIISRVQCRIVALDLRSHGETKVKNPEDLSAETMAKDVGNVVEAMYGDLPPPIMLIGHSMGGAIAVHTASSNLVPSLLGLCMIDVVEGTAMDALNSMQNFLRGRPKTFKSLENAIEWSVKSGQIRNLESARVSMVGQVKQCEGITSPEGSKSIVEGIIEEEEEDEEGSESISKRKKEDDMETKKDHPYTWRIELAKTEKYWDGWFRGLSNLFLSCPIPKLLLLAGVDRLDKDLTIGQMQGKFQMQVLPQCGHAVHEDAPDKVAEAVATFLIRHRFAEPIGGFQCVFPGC
# UniProt Q99873, whole entry, looked up: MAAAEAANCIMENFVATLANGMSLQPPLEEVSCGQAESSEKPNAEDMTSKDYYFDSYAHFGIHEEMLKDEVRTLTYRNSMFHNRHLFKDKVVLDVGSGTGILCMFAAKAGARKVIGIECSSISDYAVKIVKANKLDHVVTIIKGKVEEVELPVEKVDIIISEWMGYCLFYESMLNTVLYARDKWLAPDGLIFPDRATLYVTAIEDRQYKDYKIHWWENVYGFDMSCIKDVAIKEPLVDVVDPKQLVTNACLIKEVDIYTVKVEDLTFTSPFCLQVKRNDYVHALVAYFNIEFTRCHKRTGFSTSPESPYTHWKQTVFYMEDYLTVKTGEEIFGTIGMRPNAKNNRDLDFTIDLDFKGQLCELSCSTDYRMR
# UniProt O94806: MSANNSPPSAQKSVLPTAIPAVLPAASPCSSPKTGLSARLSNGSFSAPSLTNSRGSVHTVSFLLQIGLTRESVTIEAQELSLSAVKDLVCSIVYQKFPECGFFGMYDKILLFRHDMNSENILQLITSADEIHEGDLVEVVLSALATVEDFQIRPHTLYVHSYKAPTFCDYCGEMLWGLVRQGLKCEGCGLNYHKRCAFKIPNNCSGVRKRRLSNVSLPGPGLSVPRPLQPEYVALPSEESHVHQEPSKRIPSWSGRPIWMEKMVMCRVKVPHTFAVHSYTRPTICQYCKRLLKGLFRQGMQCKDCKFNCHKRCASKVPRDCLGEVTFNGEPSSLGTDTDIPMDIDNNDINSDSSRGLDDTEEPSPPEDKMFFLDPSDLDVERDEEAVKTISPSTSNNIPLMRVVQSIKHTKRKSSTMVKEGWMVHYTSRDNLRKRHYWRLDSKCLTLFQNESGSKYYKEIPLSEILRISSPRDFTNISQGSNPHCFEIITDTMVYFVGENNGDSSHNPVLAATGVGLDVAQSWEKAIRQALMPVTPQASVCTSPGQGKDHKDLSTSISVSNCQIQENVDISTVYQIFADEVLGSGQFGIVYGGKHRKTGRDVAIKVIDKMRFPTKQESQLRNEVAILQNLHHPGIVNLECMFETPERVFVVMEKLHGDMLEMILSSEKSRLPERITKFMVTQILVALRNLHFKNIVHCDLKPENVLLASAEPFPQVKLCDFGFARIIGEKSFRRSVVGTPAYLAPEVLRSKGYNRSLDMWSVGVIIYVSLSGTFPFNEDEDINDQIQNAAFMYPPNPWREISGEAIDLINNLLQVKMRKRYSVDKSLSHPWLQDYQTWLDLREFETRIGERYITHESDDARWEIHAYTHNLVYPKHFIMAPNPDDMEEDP
# UniProt Q9H7J1: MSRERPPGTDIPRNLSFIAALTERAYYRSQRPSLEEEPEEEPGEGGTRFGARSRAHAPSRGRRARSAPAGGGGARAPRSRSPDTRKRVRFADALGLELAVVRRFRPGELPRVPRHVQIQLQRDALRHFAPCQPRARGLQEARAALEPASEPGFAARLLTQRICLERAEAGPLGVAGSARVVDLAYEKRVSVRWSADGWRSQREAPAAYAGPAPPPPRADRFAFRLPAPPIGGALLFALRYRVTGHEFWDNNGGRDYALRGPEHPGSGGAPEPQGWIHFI
# Legend:
# Experiment in all cases: log2 fold change, soluble protein after heating vs DMSO (PISA); higher = thermal stabilisation; K562 lysate, 10 uM; active = over 0.2 and 3.5 SD of the protein, either way, in both replicates (recomputed)
# [1] = compound: C1=CC=C(C=C1)[C@H](COC2=CC3=C(C=C2)NC(=O)N3)NC(=O)C4=CC=CN(C4=O)CC5=CC(=C(C=C5)F)F
# Method in brief: (§1)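 Log-two fold change in thermal stability relative to solvent controls is reported from duplicates. For each sample, crude K562 extract from dounce-homogenised pellets in PBS pH 7.4 with 1 mM MgCl2, at 1 mg/mL protein, was treated with 10 μM compound for 30 min. Aliquots heated for 3 min across 48°C-58°C were pooled, brought to 0.5% NP-40 at 4°C and cleared at 21,000xg for 90 min. The supernatant was quantified by TMTpro 16plex LC-MS/MS with channel sums equalised.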
# [2] = compound: CC1=C(SC2=C1C(=N[C@H](C3=NN=C(N32)C)CC(=O)N)C4=CC=C(C=C4)Cl)C
# Method in brief: as §1
# [3] = compound: Cc1sc2c(c1C)C(c1ccc(Cl)cc1)=N[C@@H](CC(=O)OC(C)(C)C)c1nnc(C)n1-2
# Method in brief: as §1
# [4] = compound: c1ccc([C@@H]2C[C@H]2NC2CCNCC2)cc1
# Method in brief: as §1
# [5] = compound: CC1=C2C(=CC=C1)N=C(N(C2=O)C3=CC=CC=C3C)CN4C=NC5=C(N=CN=C54)N
# Method in brief: as §1
Target,log2 fold change [1],log2 fold change [2],log2 fold change [3],log2 fold change [4],log2 fold change [5]
PRG4 (UniProt Q92954),inactive: 0.03,inactive: -0.081,inactive: -0.059,active: -1.18,
PPM1B isoform 2 (UniProt O75688),inactive: 0.125,inactive: 0.124,inactive: 0.012,,
PPP1R15B (UniProt Q5SWA1),,,,inactive: -0.072,
PRADC1 (UniProt Q9BSG0),inactive: 0.267,inactive: 0.021,inactive: -0.029,inactive: 0.018,
PPP1R3D (UniProt O95685),inactive: 0.116,inactive: -0.043,,inactive: 0.002,inactive: 0.078
PPME1 (UniProt Q9Y570),inactive: 0.057,inactive: -0.02,inactive: 0.06,,
PRMT1 (UniProt Q99873),inactive: 0.021,inactive: -0.004,inactive: 0.013,inactive: -0.077,inactive: 0.016
PRKD3 (UniProt O94806),inactive: 0.035,inactive: 0,,inactive: -0.386,inactive: 0.206
PPP1R3E (UniProt Q9H7J1),,,,inactive: -0.058,

# From the supplement of paper PMC10849652
